# Measurements reported in patent publication US20060035212A1, “Molecules inhibiting hepatitis c virus protein synthesis and method for screening same” (Universte Joseph Fourier, priority 2002, published 2006).
# Protein sequences, listed by entry. Tags and fused reporters are not part of them. Chains listed by the source or under a name are the forms on record and can include a tag or linker.
# UniProt P55884, with tags, fused parts or gaps: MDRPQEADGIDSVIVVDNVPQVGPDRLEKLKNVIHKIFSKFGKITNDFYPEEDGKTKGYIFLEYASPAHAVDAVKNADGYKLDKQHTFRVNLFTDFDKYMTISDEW
# Some entries share one result that the patent states for a list of compounds. At least one structure is not confirmed: it was looked up by name or label, or the drawing left a doubt.
# Biological target: T1, p116 RRM/consensus sequence of region II of the HCV IRES complex (Homo sapiens, UniProt P55884)
# T1 construct: His6 (C); made in house; host or cells: E. coli BL21lysS
# Assay: In vitro screening assay: inhibition of binding of the RRM of p116 to the consensus sequence of region II of the IRES (nitrocellulose retention)
# Parameters: species or system HCV (IRES RNA); eIF3 p116 RRM cDNA from HeLa cells
# Experimental: Radiolabeled RNA fragments are obtained by in vitro transcription of the abovementioned templates in the presence of [α-32P]UTP. The RNA fragments are purified in a 6% acrylamide-urea gel and precipitated. The RNA pellets are taken up in 25 mM Tris-HCl, pH 7.4. In order to allow renaturation, the RNA was incubated at 65° C. in the abovementioned buffer for 5-7 min and then slowly cooled to ambient temperature. The renatured RNAs were incubated with increasing concentrations of protein in the same 25 mM Tris-HCl buffer, pH 7.4, at ambient temperature for 5 min.
# The mixture of proteins and of RNA is then deposited onto a nitrocellulose membrane washed beforehand with the same buffer. The radioactivity of the filter containing the RNA-protein complexes was measured using a Trilux MicroBeta radioactivity counter (PerkinElmer). […]
# The screening assay is carried out as follows. The RRM of p116 and the consensus sequence of region II are incubated in the presence of various aminoglycosides. The RNA mixture is then deposited onto a nitrocellulose membrane under the same conditions as in example 2.
row,Molecule,concentrations at which the complex is inhibited
1,CN[C@@H]1[C@@H](O)[C@@H](O[C@@H]2[C@@H](O)[C@H](O[C@H]3OC(CN)=CC[C@H]3N)[C@@H](N)C[C@H]2N)OC[C@]1(C)O [sisomycin],greater than 40 μM
2,neomycin,greater than 40 μM
